By UniProt entry, the sequences of proteins in these tests, tags left out. Where a name states a change or a piece, a line headed by the entry shows the natural chain unless it says otherwise.
UniProt Q9SUS3: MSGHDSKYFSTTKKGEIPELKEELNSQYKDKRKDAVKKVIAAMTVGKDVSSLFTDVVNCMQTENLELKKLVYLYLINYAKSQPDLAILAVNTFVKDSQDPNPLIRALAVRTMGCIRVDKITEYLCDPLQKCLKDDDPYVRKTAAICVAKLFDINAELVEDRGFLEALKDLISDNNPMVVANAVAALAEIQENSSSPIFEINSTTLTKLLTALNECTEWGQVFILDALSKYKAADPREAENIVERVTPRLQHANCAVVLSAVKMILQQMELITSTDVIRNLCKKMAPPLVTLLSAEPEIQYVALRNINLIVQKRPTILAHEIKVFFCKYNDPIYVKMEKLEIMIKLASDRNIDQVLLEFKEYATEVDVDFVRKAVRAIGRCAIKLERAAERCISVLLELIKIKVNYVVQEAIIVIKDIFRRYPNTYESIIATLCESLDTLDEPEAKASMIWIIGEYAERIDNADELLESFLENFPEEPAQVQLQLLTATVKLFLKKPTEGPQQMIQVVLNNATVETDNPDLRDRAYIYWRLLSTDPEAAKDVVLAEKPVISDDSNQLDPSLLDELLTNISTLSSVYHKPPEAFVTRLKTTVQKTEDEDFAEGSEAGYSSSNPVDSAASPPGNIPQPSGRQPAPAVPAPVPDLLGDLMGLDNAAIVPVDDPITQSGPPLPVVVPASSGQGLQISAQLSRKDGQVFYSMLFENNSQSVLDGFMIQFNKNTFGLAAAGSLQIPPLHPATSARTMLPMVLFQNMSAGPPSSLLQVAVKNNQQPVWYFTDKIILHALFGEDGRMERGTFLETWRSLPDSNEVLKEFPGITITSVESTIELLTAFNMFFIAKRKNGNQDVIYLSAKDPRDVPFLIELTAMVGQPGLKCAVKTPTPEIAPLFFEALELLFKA
UniProt Q0WNJ6: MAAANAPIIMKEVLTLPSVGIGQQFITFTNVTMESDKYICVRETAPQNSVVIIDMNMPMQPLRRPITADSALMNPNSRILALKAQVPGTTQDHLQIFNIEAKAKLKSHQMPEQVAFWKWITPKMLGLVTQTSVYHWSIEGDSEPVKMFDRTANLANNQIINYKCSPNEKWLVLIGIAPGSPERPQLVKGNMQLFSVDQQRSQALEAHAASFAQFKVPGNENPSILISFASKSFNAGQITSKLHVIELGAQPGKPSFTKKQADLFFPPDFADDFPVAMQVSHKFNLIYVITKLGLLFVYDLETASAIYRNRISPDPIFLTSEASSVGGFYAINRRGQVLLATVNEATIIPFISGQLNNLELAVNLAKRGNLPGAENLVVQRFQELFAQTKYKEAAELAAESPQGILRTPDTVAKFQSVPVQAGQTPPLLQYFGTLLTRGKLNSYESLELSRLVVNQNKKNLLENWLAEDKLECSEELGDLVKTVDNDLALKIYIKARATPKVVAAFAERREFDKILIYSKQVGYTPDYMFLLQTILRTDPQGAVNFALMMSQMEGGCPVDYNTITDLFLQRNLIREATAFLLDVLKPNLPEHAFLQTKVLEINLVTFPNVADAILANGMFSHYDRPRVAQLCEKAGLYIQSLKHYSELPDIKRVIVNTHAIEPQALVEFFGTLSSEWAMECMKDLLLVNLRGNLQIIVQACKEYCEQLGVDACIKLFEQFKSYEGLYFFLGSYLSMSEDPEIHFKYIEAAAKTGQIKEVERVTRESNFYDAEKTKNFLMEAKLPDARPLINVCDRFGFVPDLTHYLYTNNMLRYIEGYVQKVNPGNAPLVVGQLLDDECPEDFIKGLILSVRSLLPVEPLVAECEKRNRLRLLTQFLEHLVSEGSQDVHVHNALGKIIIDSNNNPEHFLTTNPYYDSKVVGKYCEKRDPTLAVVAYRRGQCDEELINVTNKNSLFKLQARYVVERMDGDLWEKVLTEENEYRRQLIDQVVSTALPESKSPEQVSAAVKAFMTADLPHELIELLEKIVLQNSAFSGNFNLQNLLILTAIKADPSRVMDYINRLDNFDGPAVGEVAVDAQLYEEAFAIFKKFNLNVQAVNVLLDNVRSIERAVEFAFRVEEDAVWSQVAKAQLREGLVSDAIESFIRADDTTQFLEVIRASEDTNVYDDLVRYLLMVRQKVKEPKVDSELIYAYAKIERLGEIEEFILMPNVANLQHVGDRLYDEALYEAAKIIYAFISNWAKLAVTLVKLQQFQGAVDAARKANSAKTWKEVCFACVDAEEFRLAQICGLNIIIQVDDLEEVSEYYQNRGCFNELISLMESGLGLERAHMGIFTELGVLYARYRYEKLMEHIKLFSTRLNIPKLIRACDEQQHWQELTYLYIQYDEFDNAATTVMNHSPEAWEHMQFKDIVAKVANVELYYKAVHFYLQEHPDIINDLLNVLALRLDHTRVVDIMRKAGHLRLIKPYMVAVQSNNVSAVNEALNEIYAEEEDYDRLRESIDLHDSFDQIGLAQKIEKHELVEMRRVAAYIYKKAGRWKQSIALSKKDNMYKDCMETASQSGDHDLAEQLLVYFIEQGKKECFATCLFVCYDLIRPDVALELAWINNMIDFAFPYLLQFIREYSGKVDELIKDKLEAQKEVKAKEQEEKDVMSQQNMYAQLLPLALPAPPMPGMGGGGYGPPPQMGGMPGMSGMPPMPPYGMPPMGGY
UniProt Q9LDK9: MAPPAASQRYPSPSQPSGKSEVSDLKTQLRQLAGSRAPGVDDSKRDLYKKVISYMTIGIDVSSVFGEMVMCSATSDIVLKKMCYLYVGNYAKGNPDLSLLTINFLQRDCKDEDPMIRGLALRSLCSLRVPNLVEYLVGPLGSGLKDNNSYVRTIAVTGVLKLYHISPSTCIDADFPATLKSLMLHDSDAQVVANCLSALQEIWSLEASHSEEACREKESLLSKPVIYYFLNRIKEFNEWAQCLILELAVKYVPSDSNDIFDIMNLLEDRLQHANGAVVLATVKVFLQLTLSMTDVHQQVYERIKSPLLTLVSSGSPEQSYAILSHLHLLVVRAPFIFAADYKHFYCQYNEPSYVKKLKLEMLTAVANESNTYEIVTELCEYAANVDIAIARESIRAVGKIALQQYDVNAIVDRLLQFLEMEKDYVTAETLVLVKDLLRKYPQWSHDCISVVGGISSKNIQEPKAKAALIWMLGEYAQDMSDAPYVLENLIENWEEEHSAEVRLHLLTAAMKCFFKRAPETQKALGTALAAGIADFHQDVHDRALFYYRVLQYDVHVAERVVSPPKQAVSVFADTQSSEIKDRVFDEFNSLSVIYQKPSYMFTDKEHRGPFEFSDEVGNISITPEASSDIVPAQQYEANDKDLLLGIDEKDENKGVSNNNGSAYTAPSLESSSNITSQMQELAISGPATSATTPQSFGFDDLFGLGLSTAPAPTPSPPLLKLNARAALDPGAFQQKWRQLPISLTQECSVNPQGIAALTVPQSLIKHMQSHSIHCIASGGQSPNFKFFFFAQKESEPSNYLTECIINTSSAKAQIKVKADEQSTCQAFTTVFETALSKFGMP
UniProt O81742: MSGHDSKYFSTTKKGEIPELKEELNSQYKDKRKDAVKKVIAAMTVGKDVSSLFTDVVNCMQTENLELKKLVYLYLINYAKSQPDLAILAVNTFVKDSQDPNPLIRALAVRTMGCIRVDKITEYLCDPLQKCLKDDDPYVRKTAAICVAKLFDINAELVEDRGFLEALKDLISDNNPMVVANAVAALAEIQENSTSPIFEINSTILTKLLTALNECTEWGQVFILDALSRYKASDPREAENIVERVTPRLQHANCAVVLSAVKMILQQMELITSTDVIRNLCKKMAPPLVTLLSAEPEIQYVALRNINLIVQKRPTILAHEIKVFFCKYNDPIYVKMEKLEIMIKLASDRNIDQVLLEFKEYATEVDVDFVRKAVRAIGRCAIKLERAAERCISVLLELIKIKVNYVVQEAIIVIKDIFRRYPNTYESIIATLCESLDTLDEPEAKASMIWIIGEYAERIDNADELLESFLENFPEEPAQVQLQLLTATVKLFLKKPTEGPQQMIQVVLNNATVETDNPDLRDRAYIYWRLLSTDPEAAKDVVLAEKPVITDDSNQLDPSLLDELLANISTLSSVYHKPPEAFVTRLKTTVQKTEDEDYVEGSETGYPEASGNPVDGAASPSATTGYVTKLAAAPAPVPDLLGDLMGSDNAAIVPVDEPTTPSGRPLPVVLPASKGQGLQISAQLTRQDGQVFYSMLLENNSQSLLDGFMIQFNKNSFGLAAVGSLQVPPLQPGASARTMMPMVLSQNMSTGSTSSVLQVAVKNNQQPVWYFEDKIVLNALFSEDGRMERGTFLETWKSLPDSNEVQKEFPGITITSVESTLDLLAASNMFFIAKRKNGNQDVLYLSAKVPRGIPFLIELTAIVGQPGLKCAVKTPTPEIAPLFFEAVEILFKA

In publication PMC7997971:

Experiments:
[1] = target: T1, amino-terminal domain of CHC2 (clathrin heavy chain 2), GAL4 BD fusion (Arabidopsis thaliana) (UniProt Q0WLB5); assay: two-hybrid; GAL4 AD fusions of AP large subunits against GAL4 BD-CHC2 NTD in S. cerevisiae AH109; growth on medium lacking Leu, Trp, His and adenine, 4 days at 30 °C; five independent colonies
T1 sequence: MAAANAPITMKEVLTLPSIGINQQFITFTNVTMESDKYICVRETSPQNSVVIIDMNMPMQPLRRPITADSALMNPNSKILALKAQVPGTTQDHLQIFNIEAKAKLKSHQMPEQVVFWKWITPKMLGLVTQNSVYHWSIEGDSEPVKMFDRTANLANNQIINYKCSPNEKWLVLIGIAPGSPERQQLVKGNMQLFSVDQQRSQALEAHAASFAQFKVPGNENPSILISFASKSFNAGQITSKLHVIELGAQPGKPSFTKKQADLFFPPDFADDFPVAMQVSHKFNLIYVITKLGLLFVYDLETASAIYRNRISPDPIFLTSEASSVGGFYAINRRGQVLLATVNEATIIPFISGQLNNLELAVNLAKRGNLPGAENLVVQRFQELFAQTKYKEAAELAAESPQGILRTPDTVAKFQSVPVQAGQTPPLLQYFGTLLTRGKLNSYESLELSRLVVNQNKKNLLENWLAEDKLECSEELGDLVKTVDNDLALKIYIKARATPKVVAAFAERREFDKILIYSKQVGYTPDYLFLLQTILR

[2] = target: T2, AP4M-GFP (mu subunit of AP-4, GFP-tagged) (Arabidopsis thaliana) (UniProt Q9SB50); assay: co-IP; lysates of 14 DAG A. thaliana seedlings expressing GFP fusions (50 mM Tris-HCl pH 7.5, 1 mM EDTA, 1% Triton X-100, no NaCl); anti-GFP immunoprecipitation (μMACS GFP Isolation Kit); immunoblot with anti-CHC
T2 sequence: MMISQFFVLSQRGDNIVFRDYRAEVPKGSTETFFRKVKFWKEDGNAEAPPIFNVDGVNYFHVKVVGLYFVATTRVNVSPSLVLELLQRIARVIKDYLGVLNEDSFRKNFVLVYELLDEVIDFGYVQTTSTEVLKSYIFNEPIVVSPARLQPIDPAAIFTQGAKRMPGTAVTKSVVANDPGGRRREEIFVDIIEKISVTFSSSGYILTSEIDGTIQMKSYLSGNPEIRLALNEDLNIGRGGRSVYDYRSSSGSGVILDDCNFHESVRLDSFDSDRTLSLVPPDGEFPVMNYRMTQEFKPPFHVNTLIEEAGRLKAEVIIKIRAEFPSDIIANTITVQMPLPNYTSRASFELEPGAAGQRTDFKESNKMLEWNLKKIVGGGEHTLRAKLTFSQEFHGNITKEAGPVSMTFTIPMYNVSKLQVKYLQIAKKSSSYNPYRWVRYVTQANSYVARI

[3] = target: T3, AP1M2-GFP (mu subunit of AP-1, GFP-tagged) (Arabidopsis thaliana) (UniProt O22715); assay: as above
T3 sequence: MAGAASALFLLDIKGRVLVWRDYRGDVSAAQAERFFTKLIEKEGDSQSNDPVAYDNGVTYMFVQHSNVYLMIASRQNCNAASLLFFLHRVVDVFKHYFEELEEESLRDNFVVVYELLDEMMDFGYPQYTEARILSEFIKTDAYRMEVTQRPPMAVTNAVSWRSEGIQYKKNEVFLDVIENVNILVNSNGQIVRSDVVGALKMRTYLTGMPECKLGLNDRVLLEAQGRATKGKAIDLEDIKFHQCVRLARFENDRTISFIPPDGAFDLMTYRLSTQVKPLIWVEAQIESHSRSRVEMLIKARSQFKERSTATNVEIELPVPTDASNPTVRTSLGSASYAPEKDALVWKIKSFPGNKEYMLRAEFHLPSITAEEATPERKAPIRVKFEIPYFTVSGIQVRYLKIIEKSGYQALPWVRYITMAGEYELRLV

| binding [1] | binding [2] | binding [3] | Substance |
| --- | --- | --- | --- |
| no binding |  |  | AP1B1 (beta subunit of AP-1), GAL4 AD fusion (from UniProt Q9SUS3) |
|  | binds weakly | binds | clathrin heavy chain (CHC), endogenous (from UniProt Q0WNJ6) |
| binds |  |  | AP1G2 (gamma subunit of AP-1), GAL4 AD fusion (Arabidopsis thaliana) |
| binds |  |  | AP1G1 (gamma subunit of AP-1), GAL4 AD fusion (Arabidopsis thaliana) |
| no binding |  |  | AP4B (beta subunit of AP-4), GAL4 AD fusion (from UniProt Q9LDK9) |
| no binding |  |  | AP1B2 (beta subunit of AP-1), GAL4 AD fusion (from UniProt O81742) |

No constants are given. Whether binding was seen depends on the method and setting. Binding calls can cover weak binding; strength is not graded here. Tags and fused reporters may be left off the sequences shown. For some of these results: Binding seen in cells or lysates may run through a third protein.
